The values below come from PubChem BioAssay AID1117359 (Southern Research Institute, 2015).

Molecules are shown by their SMILES. Several values for one entry are separate records, joined by “and”; a condition that tells them apart may be missing. Identical values can stand only once. Out of some 1,500 compounds screened, about 460 (31%) were called active.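 The calls were made as follows: active = viability at or below 80% at any tested concentration, marking the compound as toxic; inactive = the rest.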 The entries are a selection whose mix differs from that of the whole data set. Measured potencies and affinities stand elsewhere.

This assay in a line: THP-1 cell cytotoxicity, dose response, cytotoxicity control for Vif-APOBEC3G degradation inhibitor project, THP-1 cells (AID 1117359). The conditions noted are these: THP-1 viability, CellTiter-Glo luminescence, 72 h; at 40 µM (top of the series). (In general: In ATP-based viability assays light output follows the ATP content of the culture.)
On to `Brc1ccc(-c2nnc(-c3cccc(Br)c3)o2)cc1`, for which the viability (usually a read-out of living cells in per cent, often relative to untreated cells) is inactive: 104%.
In the case of `COc1ccc(/C=N/NC(=O)c2cc(O)c(O)c(O)c2)cc1Cn1cc([N+](=O)[O-])cn1` it was inactive: 125%.
In the case of `CCOC(=O)COc1nc(-c2ccco2)cc(-c2ccco2)c1C#N` it was inactive: 92.6%.
In the case of `Cc1cc(S(=O)(=O)n2ccnc2)c(Cl)cc1Cl` it was inactive: 116%; in that of `CC1(C)CC(=O)C(C2NCCc3ccccc32)=C(O)C1` (stereo unspecified), inactive: 87.3%; in that of `O=C1/C(=C/c2ccco2)Oc2c1ccc(O)c2CN1CCCCC1`, inactive: 113%.
Take `COCCn1nnnc1C(c1cc2cc(OC)c(OC)cc2[nH]c1=O)N1CCN(c2ccc(O)cc2)CC1` (stereo unspecified): the viability is inactive: 115%.
For the compound `O=C(O)C1Nc2ccc(Br)cc2C2C=CCC12` (stereo unspecified), the viability is inactive: 109%.
To `COC(=O)COc1ccc2c(c1C)O/C(=C\c1ccco1)C2=O` belongs inactive: 96.7%; to `COC(=O)c1ccc(S(=O)(=O)N2CCN(CCO)CC2)n1C`, inactive: 93.1%; to `CCN1C(=O)c2c(C)nc3ccccc3c2C1=O`, inactive: 99.6%.
In the case of `Cc1ccc(OCc2ccc(C(=O)NN)o2)cc1C` it was inactive: 89.7%.
As to `CCc1cccc(NC(=O)CCS(=O)(=O)c2ccc(Br)cc2)c1`, the viability was inactive: 87.2%.
In the case of `NC(CO)C(=O)NNCc1ccc(O)c(O)c1O` (stereo unspecified) it was inactive: 91.1%.
Take `COc1cc(/C=C2/C(=O)N(c3ccc(Br)cc3)N=C2C)cc(OC)c1OC`: the viability was inactive: 92.3%.
Turning to `CC1=Nc2nc(N3CCCCC3)c(C#N)c3c4c(nc(c23)N1)N(c1ccc(C(C)C)cc1)C(=O)C4`, the viability is inactive: 89.2%.
In the case of `O=C(Nc1ccc(F)c(Cl)c1)c1cccnc1` it was inactive: 80%; in that of `Cc1cc(C(=O)NNC(=O)/C=C/c2ccco2)c(C)o1`, inactive: 102%; in that of `CCOC(=O)C(=O)Cc1cccnn1`, inactive: 114%.
To `C/C(=N\Nc1ccc(Cl)c(C(=O)O)c1)c1ccc[nH]1` belongs inactive: 101%; to `O=C(O)CCCCC1CCSS1` (stereo unspecified), inactive: 84.7%; to `CC1=C(C(=O)OCC(Cl)(Cl)Cl)N2C(=O)C(NC(=O)Cc3ccccc3)C2SC1` (stereo unspecified), inactive: 93.4%.
To `O=C(O)c1ccc(-n2cccc2/C=C2/NC(=O)N(c3cccc(Cl)c3)C2=O)cc1` belongs inactive: 101%.
As for `CCC1CCC2(CC1)NC(=O)N(CC(=O)Nc1ccc(OC)c(Cl)c1)C2=O` (stereo unspecified), the viability was inactive: 109%.
In the case of `Cc1ccccc1NS(=O)(=O)c1ccc2[nH]cc(C(=O)N(C)Cc3ccco3)c(=O)c2c1` it was inactive: 84.1%.
In the case of `CC(/C=N/n1c(-c2ccncc2)n[nH]c1=S)=C\c1ccco1` it was inactive: 96.5%; in that of `CNCc1ccccc1Sc1ccc(O)c(O)c1`, inactive: 91.4%.
In the case of `COc1ccccc1NC(=O)CN(c1ccccc1OC)S(=O)(=O)c1ccccc1` it was inactive: 85.5%; in that of `C=C(C)C(=O)Nc1cccc(C2=NOC3(C2)C[C@H](C(N)=O)N(C(=O)C(c2ccccc2)c2ccccc2)C3)c1` (stereo partly specified), inactive: 87.4%; in that of `Cc1ccccc1OCC(=O)OCC(=O)c1ccc(OC(=O)c2ccccc2)cc1`, inactive: 96.2%.
Turning to `Cc1onc(-c2ccccc2)c1CNC(=O)C1COc2ccccc2O1` (stereo unspecified), the viability was inactive: 81%.
To `Cc1cccc(NC(=O)CSc2nnc(CCC(=O)Nc3ccc(C)c(Cl)c3)n2C)c1` belongs inactive: 99.7%; to `O=C(NCCc1ccccc1)c1ccc2nc(-c3ccco3)c(-c3ccco3)nc2c1`, inactive: 86.9%; to `COc1cccc(CN2CCSCC2)c1`, inactive: 91.3%.
In the case of `CCCc1cc(=O)[nH]c(SCC(=O)c2c(C)[nH]c3ccccc23)n1` it was inactive: 116%.
For the compound `O=C(O)c1cccc2cccc(-c3c4ccc(=O)c(O)c-4oc4c(O)c(O)ccc34)c12`, the viability is inactive: 89.6%.
To `COc1cc(-n2cnnn2)ccc1S(=O)(=O)N1CCOCC1` belongs inactive: 106%.
To `O=c1[nH]c2ccccc2n2c(-c3ccccc3)nnc12` belongs inactive: 98.6%; to `CC(=O)c1ccc2c(c1)C1C=CCC1C(C(=O)O)N2` (stereo unspecified), inactive: 97.9%; to `O=C(COC(=O)c1ccccc1)Nc1ncc([N+](=O)[O-])s1`, inactive: 85%.
In the case of `CCOc1cc(N2CCOCC2)c(OCC)cc1NC(C)C(=O)N1CCN(CC)CC1` (stereo unspecified) it was inactive: 108%; in that of `NNC(=S)Nc1ccc(Cl)cc1`, inactive: 98.7%.
Regarding `COC(=O)C(Cc1c[nH]c2ccccc12)NC(=O)C(C)C` (stereo unspecified), the viability was inactive: 107%.
For `CCOc1cc(C(C(=O)NCC2CCCO2)N(C(=O)Cn2nnc3ccccc32)c2cccc(OC)c2)ccc1O` (stereo unspecified), the viability is inactive: 98.6%.
In the case of `COC(=O)Cc1csc(Nc2c(C)n(C)n(-c3ccccc3)c2=O)n1` it was inactive: 117%.
To `Cc1ccc(Oc2ccc(/C=N/O)cn2)cc1` belongs inactive: 89.2%; to `O=C(/C=C/c1ccc(O)c(O)c1)OC1C(O)CC(OC(=O)/C=C/c2ccc(O)c(O)c2)(C(=O)O)CC1O` (stereo unspecified), inactive: 91.9% and inactive: 114%.
To `FC(F)Oc1ccccc1NC(=S)Nc1cccnc1` belongs inactive: 80.5%; to `O=C(Cn1c(=O)[nH]c2ccccc2c1=O)N1CCN(c2cccc(Cl)c2)CC1`, inactive: 105%; to `COc1ccc(/C=C/C(=O)NC(=S)Nc2ccccn2)cc1`, inactive: 99.5%.
As for `C/C(=C\C(=O)c1cccnc1)Nc1ccc(O)cc1`, the viability is inactive: 101%.
In the case of `O=C(O)C1Nc2c(C(=O)N3CCOCC3)cccc2C2C=CCC12` (stereo unspecified) it was inactive: 111%; in that of `CCOC(=O)COn1c(=O)c(-c2ccc(Cl)cc2)[n+]([O-])c2ccccc21`, inactive: 112%; in that of `NNC(=O)CCN1CCN(C(c2ccccc2)c2ccccc2)CC1`, inactive: 83.4%.
For the compound `O=C(Nc1ccccc1F)c1coc(=O)c(Br)c1`, the viability was inactive: 88%.
Regarding `Cc1cc(C)cc(NCCC#N)c1`, the viability was inactive: 88.6%.
To `O=C(O)C1Nc2c(O)cc(Cl)c([N+](=O)[O-])c2C2C=CCC12` (stereo unspecified) belongs inactive: 85%.
To `COC(=O)CCC(=O)OC1(C)C(=O)C2=COC(c3ccc(OC)cc3)=CC2=C(Br)C1=O` (stereo unspecified) belongs inactive: 117%.
To `Nc1cccc2c1C(=O)N(C(=O)/C=C/c1cccc(Br)c1)C2=O` belongs inactive: 95.2%; to `Cc1ccc(NC(=O)Nc2ccc3c(c2)nc(C)n3C)cc1`, inactive: 109%; to `Cn1c(SCC(=O)c2cc(Cl)c(Cl)s2)nnc1-c1ccco1`, inactive: 112%.
